Entries after “also recorded” stand apart in the source; their conditions may differ. For at least one compound, name, drawing or mass did not settle the structure.
Tests used:
human islets = assay: ATP-induced (or α,β meATP-induced) insulin secretion in human islets with antagonists or blockers; assay type: cell-based; conditions: Cd2+ 100 μM, nifedipine 10 μM
Source text: (§1) Islet Isolation. Islets were isolated as previously described (57). Monkey islets were isolated from cynomolgus monkeys (Macacca fascicularis) >4 years of age at the time of pancreas procurement, as previously described (58). Pig pancreata were procured from the local slaughterhouse. Mice (C57BL/6) and rat (Lewis rat; Harlan) islets were isolated using a rodent-islet isolation technique (59). All animal protocols were approved by the University of Miami Care and Use Committee. Human pancreatic islets were obtained from the Human Islet Cell Processing Facility at the Diabetes Research Institute, University of Miami Miller School of Medicine or from the Islet Cell Resource basic science islet distribution program, Islet Cell Resource Centers (ICRs) Consortium, Division of Clinical Research, National Center for Research Resources, National Institutes of Health. Human islets were dissociated into single cells using enzyme-free cell dissociation buffer (Invitrogen). […]
Insulin and Glucagon Secretion. Insulin and glucagon secretion were measured as previously described (8, 36). […] Hormone release in the perifusate was determined with the human or mouse Endocrine LINCOplex Kit following manufacturer's instructions (Lincoresearch). […]

human β cells = assay: [Ca2+]i imaging (Fura-2) of glucose-responsive human islet cells; assay type: cell-based; conditions: thapsigargin 1 μM
Source text: as §1
[Ca^2+]i; Imaging. […] Changes in the 340/380 fluorescence emission ratio over time were analyzed in individual islets and dispersed cells using Kinetic Imaging AQM Advance software (Kinetic Imaging). Peak changes in the fluorescence ratio constituted the response amplitude. […]

Compound: COC(=O)C1=C(C)NC(C)=C(C(=O)OC)C1c1ccccc1[N+](=O)[O-] [nifedipine]
- effect on insulin secretion induced by ATP (human islets; ATP 10 μM, suramin 100 μM, iso-PPADS 50 μM, thapsigargin 1 μM): reduced; also recorded: abolished insulin responses to ATP
- effect on insulin responses to α,β meATP (human islets; α,β meATP 100 μM): abolished
- effect on [Ca2+]i responses induced by ATPγS (human β cells; ATPγS 50 μM, iso-PPADS, nifedipine 10 μM): reduced
- effect on [Ca2+]i responses to ATP (human β cells; nifedipine): reduced [Ca^2+]i responses to ATP

Reference: US20170035793A1, “Use of P2X Purinergic Receptor Agonists to Enhance Insulin Secretion In Pancreatic Beta Cells” (priority 2010, published 2017)
